Measurements taken from the supplement of paper PMC11546906.
Counter-ions that a name gives are not always drawn. The list shows a part of the results. Repeats in this data set agree poorly, so a single value says little.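 Screen of FDA-approved drugs, each combined with colistin at one-eighth of its MIC, against a multidrug-resistant mcr-1-positive clinical E. coli isolate; growth read as OD600 after 24 h. Bacteria without drug were the growth control and plain broth the blank. A combination counted as active when OD600 fell below 0.2.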

Test system: Escherichia coli 42 (mcr-1-positive clinical isolate)
Assay: OD600 after 24 h growth with compound plus colistin (absorbance units (OD600)); higher = more bacterial growth (less inhibition)
Details: first compound 25 µM; colistin concentration 0.5 ug/mL; incubation time 24 h; 37 °C

OD600, active:
COc1cccc2c1C(=O)c1c(O)c3c(c(O)c1C2=O)C[C@@](O)(C(C)=O)C[C@@H]3O[C@H]1C[C@H](N)[C@H](O)[C@H](C)O1 [Daunorubicin hydrochloride] + CCC(C)CCCC(=O)N[C@@H](CCN)C(=O)N[C@H](C(=O)N[C@@H](CCN)C(=O)N[C@H]1CCNC(=O)[C@H]([C@@H](C)O)NC(=O)[C@H](CCN)NC(=O)[C@H](CCN)NC(=O)[C@H](CC(C)C)NC(=O)[C@@H](CC(C)C)NC(=O)[C@H](CCN)NC1=O)[C@@H](C)O [colistin] 0.045

OD600, inactive:
CCn1cc(C(=O)O)c(=O)c2cc(F)c(N3CCNC(C)C3)c(F)c21 (stereo not given) [Lomefloxacin] + CCC(C)CCCC(=O)N[C@@H](CCN)C(=O)N[C@H](C(=O)N[C@@H](CCN)C(=O)N[C@H]1CCNC(=O)[C@H]([C@@H](C)O)NC(=O)[C@H](CCN)NC(=O)[C@H](CCN)NC(=O)[C@H](CC(C)C)NC(=O)[C@@H](CC(C)C)NC(=O)[C@H](CCN)NC1=O)[C@@H](C)O [colistin] 0.975
C[C@@H]1CCO[C@H]2Cn3cc(C(=O)NCc4ccc(F)cc4F)c(=O)c(O)c3C(=O)N12 [Dolutegravir sodium] + CCC(C)CCCC(=O)N[C@@H](CCN)C(=O)N[C@H](C(=O)N[C@@H](CCN)C(=O)N[C@H]1CCNC(=O)[C@H]([C@@H](C)O)NC(=O)[C@H](CCN)NC(=O)[C@H](CCN)NC(=O)[C@H](CC(C)C)NC(=O)[C@@H](CC(C)C)NC(=O)[C@H](CCN)NC1=O)[C@@H](C)O [colistin] 1.02
Nc1ccc(S(=O)(=O)Nc2ccccn2)cc1 [Sulfapyridine] + CCC(C)CCCC(=O)N[C@@H](CCN)C(=O)N[C@H](C(=O)N[C@@H](CCN)C(=O)N[C@H]1CCNC(=O)[C@H]([C@@H](C)O)NC(=O)[C@H](CCN)NC(=O)[C@H](CCN)NC(=O)[C@H](CC(C)C)NC(=O)[C@@H](CC(C)C)NC(=O)[C@H](CCN)NC1=O)[C@@H](C)O [colistin] 1.11
CC1=CC(=O)c2ccccc2C1=O [Menadione] + CCC(C)CCCC(=O)N[C@@H](CCN)C(=O)N[C@H](C(=O)N[C@@H](CCN)C(=O)N[C@H]1CCNC(=O)[C@H]([C@@H](C)O)NC(=O)[C@H](CCN)NC(=O)[C@H](CCN)NC(=O)[C@H](CC(C)C)NC(=O)[C@@H](CC(C)C)NC(=O)[C@H](CCN)NC1=O)[C@@H](C)O [colistin] 0.831
N=C(N)N [Guanidine hydrochloride] + CCC(C)CCCC(=O)N[C@@H](CCN)C(=O)N[C@H](C(=O)N[C@@H](CCN)C(=O)N[C@H]1CCNC(=O)[C@H]([C@@H](C)O)NC(=O)[C@H](CCN)NC(=O)[C@H](CCN)NC(=O)[C@H](CC(C)C)NC(=O)[C@@H](CC(C)C)NC(=O)[C@H](CCN)NC1=O)[C@@H](C)O [colistin] 1.12
Nc1nc(O)c2ncn(CCC(CO)CO)c2n1 [Penciclovir] + CCC(C)CCCC(=O)N[C@@H](CCN)C(=O)N[C@H](C(=O)N[C@@H](CCN)C(=O)N[C@H]1CCNC(=O)[C@H]([C@@H](C)O)NC(=O)[C@H](CCN)NC(=O)[C@H](CCN)NC(=O)[C@H](CC(C)C)NC(=O)[C@@H](CC(C)C)NC(=O)[C@H](CCN)NC1=O)[C@@H](C)O [colistin] 0.968
C#C[C@]1(O)CC[C@H]2[C@@H]3CCC4=CC(=O)CC[C@@H]4[C@H]3CC[C@@]21C [Norethindrone] + CCC(C)CCCC(=O)N[C@@H](CCN)C(=O)N[C@H](C(=O)N[C@@H](CCN)C(=O)N[C@H]1CCNC(=O)[C@H]([C@@H](C)O)NC(=O)[C@H](CCN)NC(=O)[C@H](CCN)NC(=O)[C@H](CC(C)C)NC(=O)[C@@H](CC(C)C)NC(=O)[C@H](CCN)NC1=O)[C@@H](C)O [colistin] 0.809
C=CC1=C(C(=O)O)N2C(=O)[C@@H](NC(=O)/C(=N\O)c3csc(N)n3)[C@H]2SC1 [Cefdinir] + CCC(C)CCCC(=O)N[C@@H](CCN)C(=O)N[C@H](C(=O)N[C@@H](CCN)C(=O)N[C@H]1CCNC(=O)[C@H]([C@@H](C)O)NC(=O)[C@H](CCN)NC(=O)[C@H](CCN)NC(=O)[C@H](CC(C)C)NC(=O)[C@@H](CC(C)C)NC(=O)[C@H](CCN)NC1=O)[C@@H](C)O [colistin] 0.246
Cn1cnc2c1c(=O)[nH]c(=O)n2C [Theobromine] + CCC(C)CCCC(=O)N[C@@H](CCN)C(=O)N[C@H](C(=O)N[C@@H](CCN)C(=O)N[C@H]1CCNC(=O)[C@H]([C@@H](C)O)NC(=O)[C@H](CCN)NC(=O)[C@H](CCN)NC(=O)[C@H](CC(C)C)NC(=O)[C@@H](CC(C)C)NC(=O)[C@H](CCN)NC1=O)[C@@H](C)O [colistin] 0.952
CC1(C)S[C@@H]2[C@H](NC(=O)[C@H](C(=O)O)c3ccsc3)C(=O)N2[C@H]1C(=O)O [Ticarcillin disodium] + CCC(C)CCCC(=O)N[C@@H](CCN)C(=O)N[C@H](C(=O)N[C@@H](CCN)C(=O)N[C@H]1CCNC(=O)[C@H]([C@@H](C)O)NC(=O)[C@H](CCN)NC(=O)[C@H](CCN)NC(=O)[C@H](CC(C)C)NC(=O)[C@@H](CC(C)C)NC(=O)[C@H](CCN)NC1=O)[C@@H](C)O [colistin] 0.756
Cc1cn([C@@H]2C[C@@H](O)[C@H](CO)O2)c(=O)[nH]c1=O [Telbivudine] + CCC(C)CCCC(=O)N[C@@H](CCN)C(=O)N[C@H](C(=O)N[C@@H](CCN)C(=O)N[C@H]1CCNC(=O)[C@H]([C@@H](C)O)NC(=O)[C@H](CCN)NC(=O)[C@H](CCN)NC(=O)[C@H](CC(C)C)NC(=O)[C@@H](CC(C)C)NC(=O)[C@H](CCN)NC1=O)[C@@H](C)O [colistin] 1.05
O=C(CCCCCCC(=O)Nc1ccccc1)NO [Vorinostat] + CCC(C)CCCC(=O)N[C@@H](CCN)C(=O)N[C@H](C(=O)N[C@@H](CCN)C(=O)N[C@H]1CCNC(=O)[C@H]([C@@H](C)O)NC(=O)[C@H](CCN)NC(=O)[C@H](CCN)NC(=O)[C@H](CC(C)C)NC(=O)[C@@H](CC(C)C)NC(=O)[C@H](CCN)NC1=O)[C@@H](C)O [colistin] 0.678
O=C(O)CCc1nc(-c2ccccc2)c(-c2ccccc2)o1 [Oxaprozin] + CCC(C)CCCC(=O)N[C@@H](CCN)C(=O)N[C@H](C(=O)N[C@@H](CCN)C(=O)N[C@H]1CCNC(=O)[C@H]([C@@H](C)O)NC(=O)[C@H](CCN)NC(=O)[C@H](CCN)NC(=O)[C@H](CC(C)C)NC(=O)[C@@H](CC(C)C)NC(=O)[C@H](CCN)NC1=O)[C@@H](C)O [colistin] 1.15
OCCOCCN1CCN(C(c2ccccc2)c2ccc(Cl)cc2)CC1 (stereo not given) [Hydroxyzine dihydrochloride] + CCC(C)CCCC(=O)N[C@@H](CCN)C(=O)N[C@H](C(=O)N[C@@H](CCN)C(=O)N[C@H]1CCNC(=O)[C@H]([C@@H](C)O)NC(=O)[C@H](CCN)NC(=O)[C@H](CCN)NC(=O)[C@H](CC(C)C)NC(=O)[C@@H](CC(C)C)NC(=O)[C@H](CCN)NC1=O)[C@@H](C)O [colistin] 1.04
Nc1ncnc2c1ncn2[C@@H]1O[C@H](CO)[C@@H](O)[C@H]1O [Adenosine] + CCC(C)CCCC(=O)N[C@@H](CCN)C(=O)N[C@H](C(=O)N[C@@H](CCN)C(=O)N[C@H]1CCNC(=O)[C@H]([C@@H](C)O)NC(=O)[C@H](CCN)NC(=O)[C@H](CCN)NC(=O)[C@H](CC(C)C)NC(=O)[C@@H](CC(C)C)NC(=O)[C@H](CCN)NC1=O)[C@@H](C)O [colistin] 1.25
CC(C)(O)CNc1nc(Nc2ccnc(C(F)(F)F)c2)nc(-c2cccc(C(F)(F)F)n2)n1 [Enasidenib] + CCC(C)CCCC(=O)N[C@@H](CCN)C(=O)N[C@H](C(=O)N[C@@H](CCN)C(=O)N[C@H]1CCNC(=O)[C@H]([C@@H](C)O)NC(=O)[C@H](CCN)NC(=O)[C@H](CCN)NC(=O)[C@H](CC(C)C)NC(=O)[C@@H](CC(C)C)NC(=O)[C@H](CCN)NC1=O)[C@@H](C)O [colistin] 1.01
Cc1cc(NS(=O)(=O)c2ccc(N)cc2)no1 [Sulfamethoxazole] + CCC(C)CCCC(=O)N[C@@H](CCN)C(=O)N[C@H](C(=O)N[C@@H](CCN)C(=O)N[C@H]1CCNC(=O)[C@H]([C@@H](C)O)NC(=O)[C@H](CCN)NC(=O)[C@H](CCN)NC(=O)[C@H](CC(C)C)NC(=O)[C@@H](CC(C)C)NC(=O)[C@H](CCN)NC1=O)[C@@H](C)O [colistin] 1.11
CCOC(=O)O[C@]1(C(=O)OCCl)CC[C@H]2[C@@H]3CCC4=CC(=O)C=C[C@]4(C)[C@H]3[C@@H](O)C[C@@]21C [Loteprednol etabonate] + CCC(C)CCCC(=O)N[C@@H](CCN)C(=O)N[C@H](C(=O)N[C@@H](CCN)C(=O)N[C@H]1CCNC(=O)[C@H]([C@@H](C)O)NC(=O)[C@H](CCN)NC(=O)[C@H](CCN)NC(=O)[C@H](CC(C)C)NC(=O)[C@@H](CC(C)C)NC(=O)[C@H](CCN)NC1=O)[C@@H](C)O [colistin] 1.01
NS(=O)(=O)c1cc2c(cc1Cl)N=C(CSCc1ccccc1)NS2(=O)=O [Benzthiazide] + CCC(C)CCCC(=O)N[C@@H](CCN)C(=O)N[C@H](C(=O)N[C@@H](CCN)C(=O)N[C@H]1CCNC(=O)[C@H]([C@@H](C)O)NC(=O)[C@H](CCN)NC(=O)[C@H](CCN)NC(=O)[C@H](CC(C)C)NC(=O)[C@@H](CC(C)C)NC(=O)[C@H](CCN)NC1=O)[C@@H](C)O [colistin] 1.07
